Taken from: PubChem BioAssay AID720505 (Drosophila RNAi Screening Center, 2013)
Assay: 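Fly regulators or components of the CRAC channel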 (primary screen). System: Drosophila S2R+ cells. Reagent: long dsRNA against Drosophila genes. Challenge: thapsigargin (2 µM) in calcium-free buffer to empty internal stores, then 2 mM calcium added back. Measurement: 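Fluo-4 signal in 384-well plates read on a FLIPR after thapsigargin (2 µM, calcium-free) store depletion and 2 mM calcium add-back; unnormalised mean endpoint per well; screen run twice, selected wells retested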. Direction: calcium signal and retest calcium signal: higher = more calcium entry after store depletion. Active means: 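About 1500 genes called as lowering calcium entry, by varying amounts, judged against per-plate control wells with STIM1 as positive and Rho1 as negative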. Calls: active = called as lowering calcium entry; inactive = not called.
The screen tested about 20,000 reagents; this is a random part of those that have a named target and a result. Of all reagents, about 2,100 (10%) got an active call. 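Raw plate signals without normalisation; calls rest on control-based scores that were not deposited; replicate 2 separates called from uncalled poorly.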 Unmarked entries are inactive. A plus sign joins genes that one reagent is predicted to hit. Not stated in the record: the amount of reagent, the time to read-out.

no.	predicted target	DRSC id	calcium signal, replicate 1	calcium signal, replicate 2	retest calcium signal, replicate 1	retest calcium signal, replicate 2
1	lcs (la costa)	DRSC20580	79.3	101		
2	CG17321	DRSC02598	82.5	107		
3	Zip48C (Zinc/iron regulated transporter-related protein 48C)	DRSC06314	192	138		
4	kto (kohtalo)	DRSC10983	129	113		
5	AsnRS-m (Asparaginyl-tRNA synthetase, mitochondrial)	DRSC07010	196	139		
6	Bili (Band4.1 inhibitor LRP interactor)	DRSC14405	233	270		
7	CG15255	DRSC01869	113	95.1		
8	CG34109	DRSC02169	116	108		
9	CG34109	DRSC02224	101	123		
10	CG34109	DRSC02225	87.7	111		
11	CG8563	DRSC10996	79.5	85.5		
12	TotB (Turandot B)	DRSC15842	197	151		
13	Ebp (Ejaculatory bulb protein)	DRSC04048	96.8	103		
14	CG33253	DRSC19547	107	108		
15	CG33253	DRSC20053	170	86.6	138	98
16	CG5062	DRSC18385	315	76.8		
17	CG8157	DRSC07085	127	173		
18	CG8157	DRSC21595	118	94.4		
19	wat (waterproof)	DRSC14854	138	153		
20	CG14096	DRSC10099	86.3	152	123	89.6
21	Pop2	DRSC10537	120	103		
22	vas (retired record)	DRSC22007	66.6	148		
23	MICU3 (Mitochondrial calcium uptake 3)	DRSC15613	140	267		
24	rswl (roswell)	DRSC06923	151	82.9		
25	Mnn1 (Menin 1)	DRSC03368	195	122		
26	klg (klingon)	DRSC16978	231	200		
27	lncRNA:CR43491 (long non-coding RNA:CR43491)	DRSC19184	103	102		
28	g (garnet)	DRSC20335	76.2 (active)	105		
29	CG12909	DRSC06224	113	127		
30	CG31161	DRSC16144	134	94.2		
31	Spn53F (Serpin 53F)	DRSC06022	102	195		
32	Cyp12d1-d + Cyp12d1-p	DRSC21507	174	117		
33	COX3 (retired record)	DRSC21279	216	89.7		
34	DptA (Diptericin A)	DRSC07404	124	124		
35	CG4968	DRSC02794	91.6	155	81.3	95.6
36	resilin	DRSC05627	150	84.9		
37	resilin	DRSC06595	158	169		
38	CG8757	DRSC11039	141	107		
39	CAH2 (Carbonic anhydrase 2)	DRSC10746	87.2	78.5		
40	CG34247	DRSC09933	91.8	153		
41	CG5510	DRSC15823	201	142		
42	Polr1E (RNA polymerase I subunit E)	DRSC14506	159	162		
43	Polr1E (RNA polymerase I subunit E)	DRSC15358	222	295		
44	ap (apterous)	DRSC04917	153	95.9		
45	Ranbp21	DRSC19447	104	94.9		
46	CG14380	DRSC14840	87.8	147		
47	CG34450	DRSC17822	131	133		
48	Nepl17 (Neprilysin-like 17)	DRSC14880	124	187		
49	CG1909	DRSC17150	114	83.1		
50	lok (loki)	DRSC03567	123	168		
51	trio	DRSC08527	86.4	88.8		
52	trio	DRSC08740	85.8	96.9		
53	CG10651	DRSC02086	89.7	117		
54	CG11658	DRSC09852	63.4	78		
55	CG3610	DRSC15502	119	179		
56	CG18368	DRSC06731	111	199		
57	CG12477	DRSC09886	99.4	173		
58	CG34433	DRSC15077	207	167		
59	CG42814	DRSC15940	155	167		
60	pain (painless)	DRSC04273	140	190		
61	CG31624	DRSC02617	237	122		
62	Rrp45	DRSC20198	98.1	86.2		
63	Taz (Tafazzin)	DRSC07704	123	169	111	123
64	Taz (Tafazzin)	DRSC22625	123	220		
65	Tsp2A (Tetraspanin 2A)	DRSC18584	78.5	100		
66	Andorra	DRSC19475	90.4	131		
67	CG11159	DRSC06050	88.9	114		
68	CG6709 + Hez	DRSC10165	106	82.2		
69	CG6709 + Hez	DRSC10698	129	106		
70	Ctu1 (Cytosolic thiouridylase subunit 1)	DRSC07069	147	110		
71	CG11696	DRSC19417	177	98		
72	CG4669	DRSC10440	75.3	115		
73	CG40378 (retired record)	DRSC20958	123	13361		
74	CG40378 (retired record)	DRSC22174	115	241		
75	CG34181	DRSC01071	79.7 (active)	75.6		
76	Cpr49Ah (Cuticular protein 49Ah)	DRSC07204	101	180		
77	Unr (Upstream of N-ras)	DRSC10761	96.5	87.9		
78	Unr (Upstream of N-ras)	DRSC22959	119	87.3		
79	COX5B (Cytochrome c oxidase subunit 5B)	DRSC02115	111	82.4		
80	CG9519	DRSC20195	131	101		
81	CG13708	DRSC08317	92.4	66.2		
82	CG12158	DRSC22933	71.9 (active)	102		
83	CG8850	DRSC07287	146	291		

Copied from above, 13 entries:
no.	predicted target	DRSC id	calcium signal, replicate 1	calcium signal, replicate 2	retest calcium signal, replicate 1	retest calcium signal, replicate 2
17	CG8157	DRSC07085	127	173		
18	CG8157	DRSC21595	118	94.4		
19	wat (waterproof)	DRSC14854	138	153		
20	CG14096	DRSC10099	86.3	152	123	89.6
21	Pop2	DRSC10537	120	103		
22	vas (retired record)	DRSC22007	66.6	148		
23	MICU3 (Mitochondrial calcium uptake 3)	DRSC15613	140	267		
24	rswl (roswell)	DRSC06923	151	82.9		
25	Mnn1 (Menin 1)	DRSC03368	195	122		
26	klg (klingon)	DRSC16978	231	200		
27	lncRNA:CR43491 (long non-coding RNA:CR43491)	DRSC19184	103	102		
28	g (garnet)	DRSC20335	76.2 (active)	105		
29	CG12909	DRSC06224	113	127		
